The record followed here is patent publication US20160369115A1, “POLARIZING PLATE COMPOSITION, POLARIZING PLATE PROTECTIVE FILM, POLARIZER, POLARIZING PLATE, LIQUID CRYSTAL DISPLAY DEVICE, AND COMPOUND USED IN THE LIQUID CRYSTAL DISPLAY DEVICE” (FUJIFILM Corporation, priority 2014, published 2016).

Data set [1] can be described thus: Durability evaluation of polarizing plate, additive in polarizing plate protective film (Example 1). As to conditions: additive in protective film: Cellulose acylate, 25 μm, added amount 4.0 per 100 parts by mass of film resin; 410 nm.
Data set [2] can be described thus: Evaluation of light-fast adhesiveness of polarizing plate protective film with hardcoat layer. The settings on record: additive in protective film: Cellulose acylate, 25 μm, added amount 4.0 per 100 parts by mass of film resin; light 96 hours, 60° C., 50% RH.
Data set [3] can be described thus: Bleed-out properties in polarizer (haze evaluation). As to conditions: haze of polarizing plate; additive in polarizer, added amount 1.0 per 100 parts by mass of polyvinyl alcohol resin.
The nature of data set [4]: Evaluation of durability of polarizing plate, additive in polarizer (Example 2). The settings on record: added amount 1.0 per 100 parts by mass of polyvinyl alcohol resin, 410 nm.
Data set [5] is described as follows: Bleed-out properties in adhesive layer (haze evaluation). The settings on record: additive in adhesive layer, added amount 10.0 per 100 parts by mass of the polyvinyl alcohol resin, film thickness 5 μm.
Data set [6] is described as follows: Evaluation of durability of polarizing plate, additive in adhesive layer (Example 3). The settings on record: added amount 10.0 per 100 parts by mass of the polyvinyl alcohol resin, film thickness 5 μm; for Durability of polarizer: amount of change of orthogonal transmittance (%) 60° C., 95%, 500 hours / Durability of polarizer: amount of change of orthogonal transmittance (%) 60° C., 95%, 1,000 hours / Durability of polarizer: amount of change of orthogonal transmittance (%) 80° C., Dry 500 hours / Durability of polarizer: amount of change of orthogonal transmittance (%) 80° C., Dry, 1,000 hours: 410 nm.

Some compounds share one range, which may span the group rather than tell each member.

For the compound `O=C1NC(=O)N(Cc2ccccc2)C(=O)C1c1ccccc1` (stereo not shown) [Organic acid 1, reference compound], in data set [1], the “Durability of polarizer: amount of change of orthogonal transmittance (%) 60° C., 95%, 500 hours” value was “A+ (The amount of change of the orthogonal transmittance before and after the elapse of time was less than 0.4%.)”; the “Durability of polarizer: amount of change of orthogonal transmittance (%) 60° C., 95%, 1,000 hours” value is “A (The amount of change of the orthogonal transmittance before and after the elapse of time was equal to or greater than 1.0% and less than 1.4%.)”; the “Durability of polarizer: amount of change of orthogonal transmittance (%) 80° C., Dry 500 hours” value was “A+ (The amount of change of the orthogonal transmittance before and after the elapse of time was less than 0.1%.)”; the “Durability of polarizer: amount of change of orthogonal transmittance (%) 80° C., Dry, 1,000 hours” value is “A (The amount of change of the orthogonal transmittance before and after the elapse of time was equal to or greater than 0.5% and less than 0.8%.)”. The Light-fast adhesiveness result in data set [2] is “C (The number of cells peeled off among 100 cells was 21 to 30.)”. Moreover, the Bleed out entry in data set [3] was “C (The haze was equal to or greater than 0.7%.)”. Besides, in data set [4], the “Durability of polarizer: amount of change of degree of polarization (%) 60° C., 95%, 500 hours” value was “A+ (The amount of change of the degree of polarization before and after the elapse of time was less than 0.05%.)”; the “Durability of polarizer: amount of change of degree of polarization (%) 60° C., 95%, 1,000 hours” value was “B (The amount of change of the degree of polarization before and after the elapse of time was equal to or greater than 4.0% and less than 6.0%.)”; the “Durability of polarizer: amount of change of degree of polarization (%) 80° C., Dry, 500 hours” value was “A+ (The amount of change of the degree of polarization before and after the elapse of time was less than 0.05%.)”; the “Durability of polarizer: amount of change of degree of polarization (%) 80° C., Dry, 1,000 hours” value was “B (The amount of change of the degree of polarization before and after the elapse of time was equal to or greater than 2.0% and less than 4.0%.)”. Also, in data set [4], the “Durability of polarizer: amount of change of orthogonal transmittance (%) 60° C., 95%, 500 hours” value was “A+ (The amount of change of the orthogonal transmittance before and after the elapse of time was less than 0.1%.)”; the “Durability of polarizer: amount of change of orthogonal transmittance (%) 60° C., 95%, 1,000 hours” value is “B (The amount of change of the orthogonal transmittance before and after the elapse of time was equal to or greater than 1.0% and less than 1.6%.)”; the “Durability of polarizer: amount of change of orthogonal transmittance (%) 80° C., Dry 500 hours” value was “A+ (The amount of change of the orthogonal transmittance before and after the elapse of time was less than 0.05%.)”; the “Durability of polarizer: amount of change of orthogonal transmittance (%) 80° C., Dry, 1,000 hours” value is “B (The amount of change of the orthogonal transmittance before and after the elapse of time was equal to or greater than 0.3% and less than 0.4%.)”. In addition, in data set [5], the Bleed out result is on record as “C (The haze was equal to or greater than 0.7%.)”. In addition, in data set [6], the “Durability of polarizer: amount of change of degree of polarization (%) 60° C., 95%, 500 hours” value was “A+ (The amount of change of the degree of polarization before and after the elapse of time was less than 0.05%.)”; the “Durability of polarizer: amount of change of degree of polarization (%) 60° C., 95%, 1,000 hours” value was “A (The amount of change of the degree of polarization before and after the elapse of time was equal to or greater than 1.0% and less than 4.0%.)”; the “Durability of polarizer: amount of change of degree of polarization (%) 80° C., Dry, 500 hours” value was “A+ (The amount of change of the degree of polarization before and after the elapse of time was less than 0.05%.)”; the “Durability of polarizer: amount of change of degree of polarization (%) 80° C., Dry, 1,000 hours” value is “A (The amount of change of the degree of polarization before and after the elapse of time was equal to or greater than 0.1% and less than 2.0%.)”. For the same compound, in data set [6], the “Durability of polarizer: amount of change of orthogonal transmittance (%) 60° C., 95%, 500 hours” value was “A+ (The amount of change of the orthogonal transmittance before and after the elapse of time was less than 0.1%.)”; the “Durability of polarizer: amount of change of orthogonal transmittance (%) 60° C., 95%, 1,000 hours” value is “A (The amount of change of the orthogonal transmittance before and after the elapse of time was equal to or greater than 0.5% and less than 1.0%.)”; the “Durability of polarizer: amount of change of orthogonal transmittance (%) 80° C., Dry 500 hours” value was “A+ (The amount of change of the orthogonal transmittance before and after the elapse of time was less than 0.05%.)”; the “Durability of polarizer: amount of change of orthogonal transmittance (%) 80° C., Dry, 1,000 hours” value was “A (The amount of change of the orthogonal transmittance before and after the elapse of time was equal to or greater than 0.1% and less than 0.3%.)”.
Consider `Nc1c(F)c(F)c(C(=O)O)c(F)c1F` [Organic acid 2, reference compound], for which, in data set [1], the “Durability of polarizer: amount of change of orthogonal transmittance (%) 60° C., 95%, 500 hours” value was “B (The amount of change of the orthogonal transmittance before and after the elapse of time was equal to or greater than 0.6% and less than 0.8%.)”; the “Durability of polarizer: amount of change of orthogonal transmittance (%) 60° C., 95%, 1,000 hours” value is “B (The amount of change of the orthogonal transmittance before and after the elapse of time was equal to or greater than 1.4% and less than 1.6%.)”; the “Durability of polarizer: amount of change of orthogonal transmittance (%) 80° C., Dry 500 hours” value is “B (The amount of change of the orthogonal transmittance before and after the elapse of time was equal to or greater than 0.3% and less than 0.5%.)”; the “Durability of polarizer: amount of change of orthogonal transmittance (%) 80° C., Dry, 1,000 hours” value is “B (The amount of change of the orthogonal transmittance before and after the elapse of time was equal to or greater than 0.8% and less than 1.0%.)”. In data set [2], the Light-fast adhesiveness result is reported as “B (The number of cells peeled off among 100 cells was 11 to 20.)”. Besides, the Bleed out entry in data set [3] was “B (The haze was equal to or greater than 0.3% and less than 0.7%.)”. Moreover, in data set [4], the “Durability of polarizer: amount of change of degree of polarization (%) 60° C., 95%, 500 hours” value is “A (The amount of change of the orthogonal transmittance before and after the elapse of time was equal to or greater than 0.05% and less than 2.0%.)”; the “Durability of polarizer: amount of change of degree of polarization (%) 60° C., 95%, 1,000 hours” value is “B (The amount of change of the degree of polarization before and after the elapse of time was equal to or greater than 4.0% and less than 6.0%.)”; the “Durability of polarizer: amount of change of degree of polarization (%) 80° C., Dry, 500 hours” value is “A (The amount of change of the degree of polarization before and after the elapse of time was equal to or greater than 0.05% and less than 1.0%.)”; the “Durability of polarizer: amount of change of degree of polarization (%) 80° C., Dry, 1,000 hours” value was “B (The amount of change of the degree of polarization before and after the elapse of time was equal to or greater than 2.0% and less than 4.0%.)”. In addition, in data set [4], the “Durability of polarizer: amount of change of orthogonal transmittance (%) 60° C., 95%, 500 hours” value was “A (The amount of change of the orthogonal transmittance before and after the elapse of time was equal to or greater than 0.1% and less than 0.4%.)”; the “Durability of polarizer: amount of change of orthogonal transmittance (%) 60° C., 95%, 1,000 hours” value was “B (The amount of change of the orthogonal transmittance before and after the elapse of time was equal to or greater than 1.0% and less than 1.6%.)”; the “Durability of polarizer: amount of change of orthogonal transmittance (%) 80° C., Dry 500 hours” value is “A (The amount of change of the orthogonal transmittance before and after the elapse of time was equal to or greater than 0.05% and less than 0.1%.)”; the “Durability of polarizer: amount of change of orthogonal transmittance (%) 80° C., Dry, 1,000 hours” value was “B (The amount of change of the orthogonal transmittance before and after the elapse of time was equal to or greater than 0.3% and less than 0.4%.)”. Moreover, the Bleed out result in data set [5] is recorded as “A (The haze was less than 0.3%.)”. Further, in data set [6], the “Durability of polarizer: amount of change of degree of polarization (%) 60° C., 95%, 500 hours” value was “A (The amount of change of the degree of polarization before and after the elapse of time was equal to or greater than 0.05% and less than 2.0%.)”; the “Durability of polarizer: amount of change of degree of polarization (%) 60° C., 95%, 1,000 hours” value is “B (The amount of change of the degree of polarization before and after the elapse of time was equal to or greater than 4.0% and less than 6.0%.)”; the “Durability of polarizer: amount of change of degree of polarization (%) 80° C., Dry, 500 hours” value was “A (The amount of change of the degree of polarization before and alter the elapse of time was equal to or greater than 0.05% and less than 1.0%.)”; the “Durability of polarizer: amount of change of degree of polarization (%) 80° C., Dry, 1,000 hours” value was “B (The amount of change of the degree of polarization before and after the elapse of time was equal to or greater than 2.0% and less than 4.0%.)”. For the same compound, in data set [6], the “Durability of polarizer: amount of change of orthogonal transmittance (%) 60° C., 95%, 500 hours” value was “A (The amount of change of the orthogonal transmittance before and after the elapse of time was equal to or greater than 0.1% and less than 0.4%.)”; the “Durability of polarizer: amount of change of orthogonal transmittance (%) 60° C., 95%, 1,000 hours” value is “B (The amount of change of the orthogonal transmittance before and after the elapse of time was equal to or greater than 1.0% and less than 1.6%.)”; the “Durability of polarizer: amount of change of orthogonal transmittance (%) 80° C., Dry 500 hours” value is “A (The amount of change of the orthogonal transmittance before and after the elapse of time was equal to or greater than 0.05% and less than 0.1%.)”; the “Durability of polarizer: amount of change of orthogonal transmittance (%) 80° C., Dry, 1,000 hours” value is “B (The amount of change of the orthogonal transmittance before and after the elapse of time was equal to or greater than 0.3% and less than 0.4%.)”.
